PubChem BioAssay AID1671195 | Yale University – 2021
The whole screen tested about 22,000 reagents; below is a random part of them. About 1,510 of all reagents (6.9%) count as active. 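Active includes knockdowns raising or lowering LDL uptake; positive z-scores mean more uptake, negative mean less.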 Unmarked entries are inactive. The numbers tell different reagents against one gene apart.

Assay: 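Regulators of LDL receptor activity judged by labelled LDL uptake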 (primary screen)
Cell system: human Huh7 hepatoma cells
Reagents: siRNA pool against human genes, 18 nM
Timing: about 2 to 2.5 days of knockdown, then 8 h LDL uptake
Challenge: DiI-labelled LDL at 30 µg/ml for 8 h, in lipoprotein-deficient serum medium
Measurement: 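Fluorescent LDL signal imaged in cells, scaled to the plate median, robust z-score for each replicate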
Reading the numbers: robust z-score: higher = more LDL uptake after knockdown
Call rule: 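Active when two or more replicates show a robust z-score above 2 or below -2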

no.	gene knocked down	pool no.	robust z-score, replicate 1	robust z-score, replicate 2	robust z-score, replicate 3
1	LIMD1	1	-0.799	-0.717	-0.61
2	C1orf74	1	0.917	-0.269	0.592
3	IFNG	1	-0.24	-0.572	-0.00726
4	CAB39	1	0.148	0.885	0.709
5	ENOSF1	1	-0.419	-1.13	-0.468
6	LINC00649	1	2.6 (active)	2.18	2.12
7	FN1	1	-1.08	-1.98	-0.494
8	APOA4	1	-0.0695	0.305	0.536
9	MTCH2	1	-0.956	-1.2	-1.43
10	SLC36A4	1	0.673	0.385	-0.678
11	HUS1	1	-0.55	0.432	-0.0859
12	SHC1	1	-2.14 (active)	-2.06	-2.02
13	LOC338829 (retired record)	1	1.02	1.4	1.12
14	CXCR1	1	-0.645	-1.07	-0.307
15	LETR1	1	0.0393	1.99	1.75
16	MICU1	1	0.356	0.296	0.562
17	CCKAR	1	-0.697	-1.29	-0.818
18	LOC402031 (retired record)	1	-0.871	0.175	0.882
19	LINC01559	1	0.0538	0.31	0.0314
20	CDCA2	1	-0.111	-0.109	-0.369
21	TUBA4B	1	2.88	0.379	0.558
22	MGARP	1	-1.36	-1.2	-1.67
23	LOC441845 (retired record)	1	0.787	1.26	1.49
24	PMP22	1	-1.66	-1.43	-1.32
25	LOC441052	1	0.2	-0.465	-0.39
26	NKRF	1	-1.57	-0.691	-2
27	DUOXA2	1	-0.57	0.0341	0.449
28	DKFZp686M1136 (retired record)	1	-1.76	-1.19	-1.07

Active calls, among the entries above:
gene knocked down	pool no.	robust z-score, replicate 1	robust z-score, replicate 2	robust z-score, replicate 3
LINC00649	1	2.6 (active)	2.18	2.12
SHC1	1	-2.14 (active)	-2.06	-2.02

Next reagents:
no.	gene knocked down	pool no.	robust z-score, replicate 1	robust z-score, replicate 2	robust z-score, replicate 3
29	CASTOR1	1	0.355	-0.278	-1.6
30	WDR62	1	-0.521	-0.398	-0.335
31	MVD	1	-1.66	-0.871	-1.54
32	LOC440942 (retired record)	1	-0.445	-1.05	-0.685
33	SLC5A8	1	-0.658	-0.51	-0.332
34	RERG	1	-2.05	-0.463	-1.38
35	MAPK10	1	0.139	0.506	0.236
36	FLJ10246 (retired record)	1	0.443	0.0717	1.33
37	DTX4	1	-0.048	0.344	0.0364
38	B3GALT4	1	-1.02	-1.48	-1.16
39	CATIP	1	-0.465	-0.695	-0.432
40	AGPAT5	1	-0.0144	0.0784	-0.566
41	RPS29	1	-0.433	0.157	-0.786
42	IPCEF1	1	-0.838	0.494	0.631
43	APOL1	1	1.25	-0.575	-0.106
44	LOC442127 (retired record)	1	0.0466	0.249	0.353
45	EPDR1	1	-0.725	-1.37	-1.25
46	FGF13	1	0.454	1.3	0.59
47	FGF13	2	0.0654	0.371	0.647
48	HECTD1	1	-1.13	0.128	-0.623
49	SMG6	1	-0.693	-1.89	-0.315
50	LOC402418 (retired record)	1	-0.372	-0.267	-0.326
51	LOC387833 (retired record)	1	-0.382	-0.454	-0.471
52	TMF1	1	-1.2	-2.41	-1.13
53	DAZL	1	-1.01	-0.233	-0.932
54	PLOD3	1	0.527	0.369	0.582
55	ITGAX	1	2.44	0.79	0.943
56	KLC2	1	1.1	-0.26	-0.11
57	CASP10	1	0.763	1.1	1.51
58	MARCHF11	1	-0.234	-0.749	-0.229
59	LOC442225	1	2.97 (active)	2.57	2.28
60	IL17RC	1	1.06	1.7	1.11
61	CUL5	1	0.101	-0.465	-0.427
62	CLPX	1	-0.784	-0.522	-0.737
63	TUBB6	1	0.0857	-0.339	-0.133
64	ZC3HAV1L	1	-0.419	0.0551	0.323
65	LOC339162 (retired record)	1	0.445	0.647	0.654
66	RIN3	1	1.11	0.695	0.501
67	C1QTNF2	1	0.863	0.0724	-0.201
68	FCHO1	1	-2.03	-0.22	-1.64
